Experimental data: PubChem BioAssay AID1259267 (Sanger Institute, 2017)

- Purpose: 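Kinase and colorectal-mutated gene knock-downs lethal to GP5D cells alone or with drugs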 (primary screen)
- Cells: human GP5D colorectal cancer cells
- Reagents: siRNA pool against human genes
- Treatment: anchor drugs at low dose: BYL719 1 µM, cetuximab 5 µg/ml, trametinib 10 nM, or DMSO vehicle
- Measured: 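Viability against non-targeting pool, replicate mean: robust z-score for knock-down alone, fraction with DMSO, synergy with BYL719 1 µM, cetuximab 5 µg/ml, trametinib 10 nM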
- Reading the numbers: robust z-score, knock-down alone and viability with DMSO: higher = more viable cells; synergy score with trametinib and synergy score with BYL719 and synergy score with cetuximab: higher = stronger synthetic lethal synergy with drug
- Hit rule: 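Active (essential alone) if knock-down without drug gives robust z-score under -3; drug synergy does not count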
- Calls: active = essential alone; inactive = not essential
Shown is a random part of 794 deposited reagents. 9 of all reagents (1.1%) were called active. 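Viability capped at 1; calls reflect loss of viability from knock-down alone, not synergy with drugs.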 Reagent sequences are not shown. Not given: the amount of reagent, the time to read-out.

target gene	robust z-score, knock-down alone	viability with DMSO (fraction of control)	synergy score with trametinib	synergy score with BYL719	synergy score with cetuximab	outcome
CSNK2B (casein kinase 2 beta)	-0.391	0.744	-0.00675	-0.0515	-0.179	inactive
RYK (receptor like tyrosine kinase)	0.817	1	-0.0527	-0.287	-0.142	inactive
TESK2 (testis associated actin remodelling kinase 2)	0.817	1	-0.197	-0.361	-0.142	inactive
ROCK1 (Rho associated coiled-coil containing protein kinase 1)	0.817	1	-0.197	-0.225	-0.142	inactive
FN3K (fructosamine 3 kinase)	-0.335	0.756	-0.188	-0.183	-0.327	inactive
FOXP1 (forkhead box P1)	0.55	0.943	0.302	0.193	0.0561	inactive
MOK (MOK protein kinase)	-0.553	0.71	0.234	-0.0212	0.17	inactive
PKIA (cAMP-dependent protein kinase inhibitor alpha)	0.817	1	-0.197	-0.214	-0.142	inactive
CSNK1G2 (casein kinase 1 gamma 2)	-0.0912	0.808	0.141	-0.152	-0.149	inactive
CSNK2A1 (casein kinase 2 alpha 1)	0.817	1	0.0277	-0.0661	-0.142	inactive
STK31 (serine/threonine kinase 31)	0.817	1	-0.0445	0.0197	-0.0196	inactive
MAP4K3 (mitogen-activated protein kinase kinase kinase kinase 3)	-0.0719	0.812	0.0762	-0.179	-0.304	inactive
CKB (creatine kinase B)	-0.956	0.624	-0.135	-0.265	-0.122	inactive
DBF4 (DBF4-CDC7 kinase regulatory subunit)	0.817	1	0.0108	-0.296	-0.142	inactive
ERBB4 (erb-b2 receptor tyrosine kinase 4)	-1.1	0.595	0.0258	0.00557	0.0521	inactive
MSR1 (macrophage scavenger receptor 1)	0.817	1	-0.0646	0.0624	-0.131	inactive
PFKM (phosphofructokinase, muscle)	-0.402	0.742	0.0947	-0.0438	-0.101	inactive
CNOT1 (CCR4-NOT transcription complex subunit 1)	-2.91	0.21	0.031	-0.101	-0.00419	inactive
MAST4	0.817	1	-0.132	-0.158	-0.142	inactive
STK39 (serine/threonine kinase 39)	-3.32	0.123	-0.0981	-0.282	-0.13	active
FES (FES proto-oncogene, tyrosine kinase)	-0.983	0.619	-0.112	-0.182	-0.0191	inactive
PAK5 (p21 (RAC1) activated kinase 5)	0.817	1	0.122	0.0125	0.0766	inactive
SBK1 (SH3 domain binding kinase 1)	0.675	0.97	0.212	-0.0328	0.084	inactive
BUB1 (BUB1 mitotic checkpoint serine/threonine kinase)	-1.27	0.558	-0.186	-0.42	-0.0858	inactive
STK26 (serine/threonine kinase 26)	0.817	1	-0.000696	-0.0538	-0.0447	inactive
CAMKV (CaM kinase like vesicle associated)	-0.616	0.696	0.12	-0.167	0.0431	inactive
PIK3CA	-0.0831	0.809	0.19	-0.105	-0.0916	inactive
MAPK10 (mitogen-activated protein kinase 10)	0.817	1	-0.197	-0.243	-0.142	inactive
KMT2B (lysine methyltransferase 2B)	-0.381	0.746	0.206	-0.12	-0.126	inactive
PRKD1 (protein kinase D1)	0.817	1	0.164	-0.067	-0.0172	inactive
GRK4 (G protein-coupled receptor kinase 4)	0.0342	0.834	0.0682	-0.0592	-0.14	inactive
PRKAR1A	0.817	1	-0.164	-0.233	-0.142	inactive
PIK3C2G	-0.48	0.725	-0.134	-0.0213	-0.153	inactive
MAPK7 (mitogen-activated protein kinase 7)	0.817	1	-0.168	0.0549	-0.0306	inactive
